Results are given in words; binding and its absence hold for the method and conditions named. Some results given as binding are weak or reduced against the parent protein; the word gives no strength.
Key:
[1] = target: HIS-tagged human TNF receptor intracellular domain (TNFRicd) (human) (UniProt P19438); assay: in vitro binding assay of recombinant proteins (FIG. 8E)
[2] = target: HIS-tagged human TNF receptor intracellular domain (TNFRicd) (human) (UniProt P19438); assay: in vitro binding assay of recombinant proteins (FIG. 15A)

Protein sequences, listed by entry. Tags and fused reporters are not part of them. Residues count along the entry.
UniProt P19438, residues 235-455: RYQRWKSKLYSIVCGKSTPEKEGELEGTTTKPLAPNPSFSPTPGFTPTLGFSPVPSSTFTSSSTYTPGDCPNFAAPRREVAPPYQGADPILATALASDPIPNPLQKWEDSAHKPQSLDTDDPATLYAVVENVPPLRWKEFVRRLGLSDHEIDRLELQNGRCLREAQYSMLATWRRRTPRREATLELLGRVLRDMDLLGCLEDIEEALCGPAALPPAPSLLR
UniProt Q60749: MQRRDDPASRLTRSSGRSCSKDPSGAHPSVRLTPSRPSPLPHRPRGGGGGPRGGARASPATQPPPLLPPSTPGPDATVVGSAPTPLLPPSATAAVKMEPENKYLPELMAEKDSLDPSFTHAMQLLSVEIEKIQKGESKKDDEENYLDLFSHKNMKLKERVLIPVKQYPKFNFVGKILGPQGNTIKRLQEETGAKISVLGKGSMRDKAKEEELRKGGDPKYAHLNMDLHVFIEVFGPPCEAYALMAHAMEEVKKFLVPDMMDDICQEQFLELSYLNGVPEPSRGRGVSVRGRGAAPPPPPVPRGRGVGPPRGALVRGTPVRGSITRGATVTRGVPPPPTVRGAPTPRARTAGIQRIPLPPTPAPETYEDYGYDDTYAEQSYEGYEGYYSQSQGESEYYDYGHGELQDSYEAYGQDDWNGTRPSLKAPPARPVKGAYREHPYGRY

- binding [1]: binds
- binding [2]: binds
Substance: recombinant GST-tagged mouse Sam68 (from UniProt Q60749 1-443)

— patent publication US20120121608A1 (CALIFORNIA INSTITUTE OF TECHNOLOGY, published 2012)
